# PubChem BioAssay AID588590 (National Center for Advancing Translational Sciences (NCATS), 2011)
# By UniProt entry, the sequences of proteins in these tests, tags left out. Where a name states a change or a piece, a line headed by the entry shows the natural chain unless it says otherwise.
# UniProt Q9UNA4: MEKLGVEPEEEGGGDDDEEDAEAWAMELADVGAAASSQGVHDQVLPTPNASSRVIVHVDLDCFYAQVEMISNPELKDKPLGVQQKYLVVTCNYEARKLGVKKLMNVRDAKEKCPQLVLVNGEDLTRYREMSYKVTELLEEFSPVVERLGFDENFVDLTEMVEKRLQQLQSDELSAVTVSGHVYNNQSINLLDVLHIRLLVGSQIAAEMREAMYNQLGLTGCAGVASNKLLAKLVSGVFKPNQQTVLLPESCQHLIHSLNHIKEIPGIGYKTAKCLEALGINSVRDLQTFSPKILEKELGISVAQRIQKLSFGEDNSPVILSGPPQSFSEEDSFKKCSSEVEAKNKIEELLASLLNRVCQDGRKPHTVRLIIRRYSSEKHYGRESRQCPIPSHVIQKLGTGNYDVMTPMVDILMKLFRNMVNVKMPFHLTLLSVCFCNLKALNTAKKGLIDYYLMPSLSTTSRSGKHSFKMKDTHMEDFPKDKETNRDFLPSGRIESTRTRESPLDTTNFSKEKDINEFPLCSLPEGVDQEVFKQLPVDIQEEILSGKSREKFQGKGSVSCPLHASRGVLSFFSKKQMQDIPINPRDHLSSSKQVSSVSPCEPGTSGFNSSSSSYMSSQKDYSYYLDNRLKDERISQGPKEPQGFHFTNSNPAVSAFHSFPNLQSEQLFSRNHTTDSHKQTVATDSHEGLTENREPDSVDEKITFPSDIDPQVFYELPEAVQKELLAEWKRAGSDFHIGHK
# Hit rate of the full screen: of about 390,000 compounds, about 4,000 (1%) were called active. Inconclusive means that the source gave no clear call. Such entries were picked first, then a sample of the others. Calls come from the whole dose curve; as a rule, active = well fitted inhibition curve with a large enough effect; inconclusive = small, poorly fitted or top-dose-only effect, or another doubt; inactive = no such curve, though single readings can be large or run the other way. Potencies beside an inconclusive call are fits to weak or partial responses and may not hold up.
# Molecular target: DNA polymerase iota (Homo sapiens) (UniProt Q9UNA4)
# Experiment: qHTS for Inhibitors of Polymerase Iota
# Details: Pol iota fluorescent replication assay, 10 min; series mostly up to 115 µM; activity, negative = inhibition: at the top concentration
# Method in brief: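 Fluorescent replication assay read twice, at 0 min and 10 min after adding 50 nM (final) substrate. Enzyme (10 nM) and compounds were first incubated 15 min at room temperature; enzyme-free buffer wells were negative controls.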
# Potency is the fitted concentration of half-maximal effect.
Structure (SMILES),Potency,"activity, negative = inhibition"
O=C(Nc1ccccc1Oc1ccsc1C(=O)O)c1ccccc1,"inconclusive: 15.8 µM [inhibitor, partial curve, poor fit]",
N#Cc1c(NC(=O)COC(=O)c2ccc(O)cc2O)sc2c1CCC2,"inconclusive: 50.1 µM [inhibitor, partial curve, poor fit]",
O=C(CC(O)(c1ccccc1)C(F)(F)F)c1cccs1 (configuration not stated),"inconclusive: 100 µM [inhibitor, single point]",
NC(=O)COC(=O)C1c2ccccc2Oc2ccccc21,"inconclusive: 22.4 µM [inhibitor, single point]",
CC[n+]1ccccc1/C=C1\Sc2ccc(C)cc2N1C,"inconclusive: 56.2 µM [inhibitor, single point]",
CCOC(=O)COc1c(OC)cc(Cl)cc1C1Nc2ccccc2C(=O)N1c1ccccc1 (configuration not stated),"inconclusive: 50.1 µM [inhibitor, full curve]",
Fc1ccccc1N1CCN(C(c2ccncc2)c2nnnn2C2CCCC2)CC1 (configuration not stated),active: 79.4 µM,
CN(C)c1ccc(C(=O)OCC(=O)Nc2ccc(S(N)(=O)=O)cc2)cc1,"inconclusive: 11.2 µM [inhibitor, full curve, poor fit]",
COc1ccc(C(=O)CC(=O)c2ccc(F)cc2)cc1,,inactive: 28.9%
COc1ccc(NC(=S)NC(=O)c2csnn2)cc1,"inconclusive: 15.8 µM [inhibitor, partial curve, poor fit]",
Cc1ccc(S(=O)(=O)NC(CC(N)=O)C(=O)O)cc1 (configuration not stated),"inconclusive: 89.1 µM [inhibitor, single point]",
CCOC(=O)N1CCN(Cc2nc(-c3cccs3)no2)CC1,,inactive: 20.3%
CCC(CO)Oc1cc(NC(=O)c2cccc3ccccc23)c2ncn(C(C)C)c2c1 (configuration not stated),"inconclusive: 35.5 µM [inhibitor, single point]",
CC(c1ccccc1)C1C(C#N)=C(N)SC(N)=C1C#N (configuration not stated),,inactive: -1.83%
COc1ccc(C)cc1S(=O)(=O)N1CCN(S(=O)(=O)c2cc(C)ccc2OC)C(C)C1 (configuration not stated),"inconclusive: 31.6 µM [inhibitor, single point]",
CN(C)N1C(N)=C(C#N)C(c2cccnc2)C2=C1CCCC2=O (configuration not stated),,inactive: 208%
COc1ccc(Cl)cc1C(=O)NNC(=O)c1cccnc1,"inconclusive: 100 µM [inhibitor, partial curve]",
CCN(C(=O)Cn1c(=O)n(CC2CCC(C(=O)NC)CC2)c(=O)c2sccc21)c1ccccc1 (configuration not stated),"inconclusive: 89.1 µM [inhibitor, single point]",
COc1ccc(C)cc1Nc1n[n+](-c2ccccc2)c(-c2ccc(NC(C)=O)cc2)s1,"inconclusive: 79.4 µM [inhibitor, single point]",
CCOC(=O)c1ccc(NC(=O)c2nccnc2C(=O)O)cc1,"inconclusive: 50.1 µM [inhibitor, partial curve, poor fit]",
Cc1cc(=O)[nH]c(SCC(=O)c2ccc3c(c2)NC(=O)CO3)n1,"inconclusive: 79.4 µM [inhibitor, partial curve]",

Structure (SMILES),Potency,"activity, negative = inhibition"
Cc1ccc(NC(=O)Cc2coc3c(C)c(C)ccc23)cc1Cl,"inconclusive: 79.4 µM [inhibitor, partial curve, poor fit]",
OC(CN1CCOCC1)c1ccc(F)cc1 (configuration not stated),"inconclusive: 56.2 µM [inhibitor, partial curve, poor fit]",
CN1C(C(=O)NCC2CC2)CC2Cn3c(nc4cc5ccccc5cc43)C21 (configuration not stated),,inactive: 6.54%
CCOC(=O)c1cc2c(=O)n3cccc(C)c3nc2n(CC(C)C)c1=NC(=O)c1ccco1,"inconclusive: 15.8 µM [inhibitor, partial curve, poor fit]",
COc1cccc(N2CCN(c3nc(-c4ccccc4C)cc(=O)[nH]3)CC2)c1,"inconclusive: 63.1 µM [inhibitor, partial curve, poor fit]",
COc1cccc(NC(=O)N2CCN(c3nc(-c4cccc(OC)c4)cs3)CC2)c1,"inconclusive: 31.6 µM [inhibitor, single point]",
Cc1[nH]c(=S)c(C#N)c(C)c1C(=O)Nc1ccccc1,"inconclusive: 7.08 µM [inhibitor, full curve, poor fit]",
O=C(N/N=C/c1ccc([N+](=O)[O-])o1)c1cc(-c2ccc(-c3ccccc3)cc2)nc2ccccc12,"inconclusive: 39.8 µM [inhibitor, partial curve, poor fit]",
CCn1c(C)nc2cc(C(=O)NNS(=O)(=O)c3ccccc3F)ccc21,"inconclusive: 7.08 µM [inhibitor, partial curve, poor fit]",
CCOC(=O)c1ccc(N(C(=O)c2ccccc2)c2ccccc2)cc1,"inconclusive: 4.47 µM [inhibitor, full curve, poor fit]",
COc1ccc(NC(=O)c2sc3nc4c(cc3c2N)CCCCCC4)cc1OC,"inconclusive: 25.1 µM [inhibitor, single point]",
NC(=O)c1ccc(NC(=O)COc2coc(CN3CCc4ccccc4C3)cc2=O)cc1,"inconclusive: 50.1 µM [inhibitor, partial curve]",
Cc1ccc(CNC(=O)CN(C2CCCCC2)S(C)(=O)=O)cc1,"inconclusive: 7.94 µM [inhibitor, single point]",
CN(C)c1ccc(C(=O)OCC(=O)Nc2cccc(S(=O)(=O)N3CCCC3)c2)cc1,"inconclusive: 89.1 µM [inhibitor, single point]",
CCOc1ccc(NS(=O)(=O)c2ccc3[nH]cc(C(=O)NCc4ccccc4)c(=O)c3c2)cc1,active: 89.1 µM,
O=C(O)c1sccc1NC(=O)c1c(Cl)cccc1Cl,"inconclusive: 89.1 µM [inhibitor, partial curve, poor fit]",
CCn1c(=O)n(CC)c2cc(S(=O)(=O)N3CCc4ccccc43)ccc21,"inconclusive: 100 µM [inhibitor, partial curve, poor fit]",
CCOc1ccccc1NC(=O)CN1c2ccccc2S(=O)(=O)c2ccccc21,,inactive: -28.3%
CC(C)C(c1nnnn1C(C)(C)C)N1CCN(Cc2cccnc2)CC1 (configuration not stated),"inconclusive: 14.1 µM [inhibitor, full curve, poor fit]",
NC(=O)[C@@H]1CCOc2c(I)cc([N+](=O)[O-])cc2C(=O)N[C@@H](CO)C(=O)NCC(=O)N1,"inconclusive: 14.1 µM [inhibitor, partial curve, poor fit]",
COc1ccccc1OCc1nnc(SCC(=O)c2cc(Cl)ccc2OC)o1,"inconclusive: 39.8 µM [inhibitor, partial curve, poor fit]",

Structure (SMILES),Potency,"activity, negative = inhibition"
Cn1c(=O)n(Cc2ccc(F)cc2)c(=O)c2c1nc1n2CCCN1C1CCCCC1,"inconclusive: 39.8 µM [inhibitor, single point]",
Cc1ncc(CO)c(/C=N/NC(=S)Nc2cccc(Cl)c2)c1O,"inconclusive: 7.94 µM [inhibitor, partial curve, poor fit]",
COC(=O)CN1C(=S)N(c2ccc(OC)cc2)C(=O)/C1=C/c1ccc(N2CCOCC2)cc1,"inconclusive: 50.1 µM [inhibitor, partial curve, poor fit]",
CC(CC(=O)O)Nc1ccccc1O (configuration not stated),"inconclusive: 20 µM [inhibitor, partial curve, poor fit]",
O=C(O)c1cc(NCc2cc(O)ccc2O)ccc1O,active: 17.8 µM,
CCOC(=O)CCn1cc(F)c(=O)n(Cc2ccccc2)c1=O,"inconclusive: 25.1 µM [inhibitor, partial curve, poor fit]",
O=C(O)c1cc([N+](=O)[O-])ccc1NCCCc1ccccc1,"inconclusive: 31.6 µM [inhibitor, partial curve, poor fit]",
Cc1cc(C)c(NC(=O)/C(=C/c2ccco2)c2ccccc2)c(C)c1,"inconclusive: 44.7 µM [inhibitor, partial curve, poor fit]",
O=C(/C=C/c1ccccc1Cl)N(c1ccccn1)C1CCCCC1,"inconclusive: 112 µM [inhibitor, single point]",
COc1cc(/C=N/Nc2ccccc2)ccc1O,"inconclusive: 39.8 µM [inhibitor, single point]",
CC(=O)N[C@@H](Cc1ccc(O)cc1)CN1C(N)=NC[C@@H]1CC(C)C,"inconclusive: 8.91 µM [inhibitor, partial curve, poor fit]",
CC(=O)CSc1nsc(SCC(C)=O)c1C#N,"inconclusive: 15.8 µM [inhibitor, partial curve, poor fit]",
COc1cc(CC(=O)Nc2ccc(S(=O)(=O)N(C)C)cc2)cc(OC)c1OC,"inconclusive: 112 µM [inhibitor, partial curve, poor fit]",
Cc1ccc(S(=O)(=O)N2CCN(CC(O)CN3CCOCC3)CC2)cc1 (configuration not stated),"inconclusive: 44.7 µM [inhibitor, partial curve, poor fit]",
Cc1nn(CCC(=O)N2CCN(c3ccccc3)CC2)c(C)c1S(=O)(=O)N1CCCC1,,inactive: -14.1%
c1coc(CN(Cc2ccco2)c2ncnc3c2oc2ccccc23)c1,"inconclusive: 20 µM [inhibitor, full curve]",
O=C(COC(=O)Cc1ccsc1)Nc1ccc(Cl)c(S(=O)(=O)N2CCOCC2)c1,"inconclusive: 89.1 µM [inhibitor, partial curve]",
CCCCCCCc1nn2c(=O)cc(O)nc2s1,"inconclusive: 63.1 µM [inhibitor, partial curve, poor fit]",
Cc1ccc(-c2csc3ncn(CC#N)c(=O)c23)cc1,,inactive: 16.8%
CC(=O)Nc1nnc(SCc2cc(=O)c3cccc(Cl)c3[nH]2)s1,active: 89.1 µM,

# Another view of 3 compounds above:
Structure (SMILES) | Potency | activity, negative = inhibition
Cn1c(=O)n(Cc2ccc(F)cc2)c(=O)c2c1nc1n2CCCN1C1CCCCC1 | inconclusive: 39.8 µM [inhibitor, single point] | 
Cc1ncc(CO)c(/C=N/NC(=S)Nc2cccc(Cl)c2)c1O | inconclusive: 7.94 µM [inhibitor, partial curve, poor fit] | 
COC(=O)CN1C(=S)N(c2ccc(OC)cc2)C(=O)/C1=C/c1ccc(N2CCOCC2)cc1 | inconclusive: 50.1 µM [inhibitor, partial curve, poor fit] | 
